PubChem BioAssay AID1224830, NIAID, 2016

Test: 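Host factors that control LPS-induced TNF expression in human macrophages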 (primary screen)
Cells: human THP-1 monocytic leukaemia cells, TNF dual-luciferase reporter clone, PMA-differentiated to macrophage-like cells
Knock-down reagent: siRNA pool against human genes, 50 nM
Time to read-out: LPS for 4 h, given about 3 days after siRNA transfection
Treatment: bacterial LPS (TLR4 ligand), 10 ng/ml
Measured: 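TNF firefly reporter luminescence divided by renilla, normalised to the plate median, then turned into a robust z-score for each replicate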
Scale: TNF reporter robust z-score: higher = stronger TNF reporter response to LPS
Call rule: 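Each well counts as active if its z-score is over 2.8 or under -1.5; controls are left without a call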
Shown is a random part of about 18,000 deposited reagents. About 2,900 of all reagents (16%) count as active. 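Calls are made per well; low scores hint the gene aids the LPS response, high scores that it dampens it.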 Repeated entries: four replicate wells of each siRNA pool.

gene	TNF reporter robust z-score	call
MAP1LC3A (GeneID 84557)	0.79	inactive
MAP1LC3A (GeneID 84557)	-0.34	inactive
MAP1LC3A (GeneID 84557)	-0.3	inactive
MAP1LC3A (GeneID 84557)	-0.79	inactive
ARHGAP11B (GeneID 89839)	1.14	inactive
ARHGAP11B (GeneID 89839)	1.84	inactive
ARHGAP11B (GeneID 89839)	1.58	inactive
ARHGAP11B (GeneID 89839)	0.07	inactive
TMEM135 (GeneID 65084)	-0.02	inactive
TMEM135 (GeneID 65084)	3.14	active
TMEM135 (GeneID 65084)	0	inactive
TMEM135 (GeneID 65084)	0.8	inactive
AMPD3 (GeneID 272)	-0.14	inactive
AMPD3 (GeneID 272)	1.18	inactive
AMPD3 (GeneID 272)	0.48	inactive
AMPD3 (GeneID 272)	0.55	inactive
ISYNA1 (GeneID 51477)	-0.6	inactive
ISYNA1 (GeneID 51477)	-1.12	inactive
ISYNA1 (GeneID 51477)	-0.42	inactive
ISYNA1 (GeneID 51477)	-0.72	inactive
HEATR1 (GeneID 55127)	-0.3	inactive
HEATR1 (GeneID 55127)	0.78	inactive
HEATR1 (GeneID 55127)	0.22	inactive
HEATR1 (GeneID 55127)	0.32	inactive
ADGRB2 (GeneID 576)	0	inactive
ADGRB2 (GeneID 576)	0.68	inactive
ADGRB2 (GeneID 576)	0.99	inactive
ADGRB2 (GeneID 576)	0.92	inactive
PREP (GeneID 5550)	0.77	inactive
PREP (GeneID 5550)	-0.35	inactive
PREP (GeneID 5550)	0.55	inactive
PREP (GeneID 5550)	1.01	inactive
SLURP1 (GeneID 57152)	0.52	inactive
SLURP1 (GeneID 57152)	0.91	inactive
SLURP1 (GeneID 57152)	0.68	inactive
SLURP1 (GeneID 57152)	1.47	inactive
SLC35A4 (GeneID 113829)	-0.77	inactive
SLC35A4 (GeneID 113829)	-0.75	inactive
SLC35A4 (GeneID 113829)	-0.41	inactive
SLC35A4 (GeneID 113829)	-1.26	inactive
ANKRD35 (GeneID 148741)	1.19	inactive
ANKRD35 (GeneID 148741)	-0.72	inactive
ANKRD35 (GeneID 148741)	-1.09	inactive
ANKRD35 (GeneID 148741)	-0.76	inactive
ANKRD35 (GeneID 148741)	3.67	active
ANKRD35 (GeneID 148741)	1.5	inactive
ANKRD35 (GeneID 148741)	2.21	inactive
ANKRD35 (GeneID 148741)	1.26	inactive

Part of the list above, set out differently:
gene,TNF reporter robust z-score,call
PREP (GeneID 5550),0.55,inactive
PREP (GeneID 5550),1.01,inactive
SLURP1 (GeneID 57152),0.52,inactive
SLURP1 (GeneID 57152),0.91,inactive
SLURP1 (GeneID 57152),0.68,inactive
SLURP1 (GeneID 57152),1.47,inactive
